Patent US7928119B2, “Use of EP4 receptor ligands in the treatment of IL-6 involved diseases” (Pfizer Inc., priority 2002, dated 2011)
For at least one compound, name, drawing or mass did not settle the structure.

Tests used:
[1] = tested on: human leukemic T cells of the HSB.2 cultured line; conditions: HSB.2 cells coexpressing EP2, EP3 and EP4; cited from earlier work
human whole blood (HWB) = assay: Effects of EP agonists on the production of IL-6 in HWB; format: cell-based; conditions: agonist 1-10 μM (up to 10 μM), 24 hrs
Experimental: Peripheral human whole blood (HWB) was collected from healthy volunteers into the sample tubes (nine volumes into one volume of 3.8% trisodium citrate, Becton Dickinson), and chilled at 4° C. until the experiment. HWB (50 μl) was put into the assay plate and mixed for 10 sec with plate mixer (intensity level at 4, TAITAC, Micromixer). The samples were placed for 3 min at room temperature, then 45 μl of AIM medium was added and mixed for 10 sec with plate mixer (intensity level at 4). The samples were placed for 3 min at room temperature. The mixture (100 μl) of 10-10000 nM each EP agonist and 100 μM argatroban were added to the samples, and mixed for 10 sec with plate mixer (intensity level at 4). The samples were incubated in 5% CO2 at 37° C. for 24 hrs. Then, the samples were stirred and centrifuged at 200 g for 10 minutes. The supernatants were collected, and the IL-6 concentration was measured by ELISA-Kit (Cyto screen).
The application of 1-10 μM Butaprost, an EP2 agonist, enhanced IL-6 production (FIG. 5). […] Effects of EP2 (butaprost), EP4 (11-deoxy-PGE1) and EP1/EP3 (sulprostone) agonists on the production of IL-6 in HWB was measured respectively. Each agonist was added to the HWB, and incubated in 5% CO2 at 37° C. for 24 hrs. The results represented the mean±s.d. of the results in triplicate. […]

Q: With CCCCC(C)(O)C/C=C/[C@H]1[C@H](O)CC(=O)[C@@H]1CCCCCCC(=O)OC (mixture of isomers) [misoprostol] as the compound, how does the IL-6 production [1] read?
A: induced increases in IL-6 production

Q: With CS(=O)(=O)NC(=O)CCC/C=C\C[C@H]1C(=O)C[C@@H](O)[C@@H]1/C=C/[C@@H](O)COc1ccccc1 [sulprostone] as the compound, how does the IL-6 production (human whole blood (HWB)) read?
A: did not
